The values that follow come from PMC4346919.

Amino acid sequences for entries named in this document (tags omitted). A change or cut given only in a name is not applied to a line headed by its entry.
UniProt Q9NRY6: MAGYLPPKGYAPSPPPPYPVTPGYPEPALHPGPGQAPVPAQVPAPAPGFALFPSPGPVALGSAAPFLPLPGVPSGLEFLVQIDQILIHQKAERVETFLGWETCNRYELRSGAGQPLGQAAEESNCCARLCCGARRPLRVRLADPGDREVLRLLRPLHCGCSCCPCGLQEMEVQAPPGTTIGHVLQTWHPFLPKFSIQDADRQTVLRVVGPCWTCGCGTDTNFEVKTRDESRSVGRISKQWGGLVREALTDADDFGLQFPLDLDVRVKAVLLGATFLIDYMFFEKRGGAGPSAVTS
UniProt O75340: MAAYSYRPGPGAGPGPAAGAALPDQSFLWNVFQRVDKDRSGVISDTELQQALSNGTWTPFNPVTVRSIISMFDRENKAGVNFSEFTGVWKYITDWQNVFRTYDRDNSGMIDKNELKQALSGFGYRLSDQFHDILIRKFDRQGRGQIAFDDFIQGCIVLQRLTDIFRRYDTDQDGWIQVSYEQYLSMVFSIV

Assay in all cases: far-Western, overlay or dot blot; purified GST-fused peptides resolved by SDS-PAGE, transferred to PVDF membranes and probed with biotin-labeled ALG-2; chemiluminescence, quantified with ImageJ; both purified
Experiment [1] concerns the target T1, GST-fused PLSCR3 peptide, 12 aa (43–54) (UniProt Q9NRY6).
T1 sequence: PAPAPGFALFPS

Experiment [2] has as its target T2, GST-fused Sec31A 8-residue peptide F7A (human).
T2 sequence: NPPPPGAI

Experiment [3] has as its target T3, GST-fused Sec31A 8-residue peptide G6L (human).
T3 sequence: NPPPPLFI

The target of experiment [4] is T4, GST-fused Sec31A 8-residue peptide I8A (human).
T4 sequence: NPPPPGFA

Experiment [5] concerns the target T5, GST-fused Sec31A 8-residue peptide P3A (human).
T5 sequence: NPAPPGFI

These are yes or no findings as the source states them, for the method shown. Some results given as binding are weak or reduced against the parent protein; the word gives no strength. Sequences can lack the tags named with a protein.

In the case of “biotin-labeled ALG-2 (from UniProt O75340 1-191)”, the binding entry in experiment [1] is recorded as “binds”; in experiment [2] it was “binds weakly”; in experiment [3] it was “binds weakly”; in experiment [4], “binds weakly”; in experiment [5] it was “binds weakly”.
